Experiment [1] concerns the target DRP1 (mouse (endogenous in CMECs)) (UniProt Q8K1M6). Put plainly: native gel or EMSA; nondenatured CMEC lysate (Native Lysis Buffer, no heating) on polyacrylamide gels without denaturants, blot for DRP1; oligomers standardized to the monomer; OGD/R injury, ADV-NC or ADV-HINT2, Ru360.
For experiment [2], the target named is T1, Flag-tagged HINT2 mutant (Leu76, Phe78 and Asp80 mutated into Ala) (mouse) (UniProt Q9D0S9).
T1 sequence: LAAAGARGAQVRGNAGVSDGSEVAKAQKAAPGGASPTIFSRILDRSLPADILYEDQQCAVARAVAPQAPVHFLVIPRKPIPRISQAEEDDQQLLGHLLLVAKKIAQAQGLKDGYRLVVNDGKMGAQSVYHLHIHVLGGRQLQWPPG
Put plainly: co-IP; CMEC lysate (Cell Lysis Buffer for IP) incubated with protein A/G-magnetic beads conjugated with anti-Flag antibody for 30 min at RT; blot for MCU; rabbit IgG as negative control.

By UniProt entry, the sequences of proteins in these tests, tags left out. Residues count along the entry.
UniProt Q8K1M6: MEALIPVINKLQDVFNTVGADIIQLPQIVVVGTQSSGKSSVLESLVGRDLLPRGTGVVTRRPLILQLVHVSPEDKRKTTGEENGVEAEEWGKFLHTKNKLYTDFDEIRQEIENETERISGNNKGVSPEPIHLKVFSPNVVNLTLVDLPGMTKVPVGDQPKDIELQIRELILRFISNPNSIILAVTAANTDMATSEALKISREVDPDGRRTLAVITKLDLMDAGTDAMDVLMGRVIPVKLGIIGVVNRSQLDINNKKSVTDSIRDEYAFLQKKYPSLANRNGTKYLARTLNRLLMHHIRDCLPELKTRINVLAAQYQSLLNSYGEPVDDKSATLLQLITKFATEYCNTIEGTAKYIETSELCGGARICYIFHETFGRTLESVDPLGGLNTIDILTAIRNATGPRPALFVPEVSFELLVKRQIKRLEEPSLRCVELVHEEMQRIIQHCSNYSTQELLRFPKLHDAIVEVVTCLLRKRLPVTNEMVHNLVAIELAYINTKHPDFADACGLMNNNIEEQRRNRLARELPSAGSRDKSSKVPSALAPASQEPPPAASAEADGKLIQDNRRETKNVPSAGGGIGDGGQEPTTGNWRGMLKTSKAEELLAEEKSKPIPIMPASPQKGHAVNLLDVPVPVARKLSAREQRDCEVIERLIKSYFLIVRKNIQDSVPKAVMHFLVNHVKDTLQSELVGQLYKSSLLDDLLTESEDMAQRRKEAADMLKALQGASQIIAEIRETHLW
UniProt Q3UMR5, residues 50-350: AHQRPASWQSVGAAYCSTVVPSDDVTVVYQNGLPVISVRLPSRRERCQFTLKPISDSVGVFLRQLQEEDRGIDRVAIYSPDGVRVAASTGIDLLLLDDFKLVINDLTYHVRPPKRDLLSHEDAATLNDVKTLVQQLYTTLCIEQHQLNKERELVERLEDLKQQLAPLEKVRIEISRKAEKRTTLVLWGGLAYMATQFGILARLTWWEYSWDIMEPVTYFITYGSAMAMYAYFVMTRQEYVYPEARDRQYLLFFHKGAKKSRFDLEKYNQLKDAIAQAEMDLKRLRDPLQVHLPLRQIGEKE
UniProt Q02248: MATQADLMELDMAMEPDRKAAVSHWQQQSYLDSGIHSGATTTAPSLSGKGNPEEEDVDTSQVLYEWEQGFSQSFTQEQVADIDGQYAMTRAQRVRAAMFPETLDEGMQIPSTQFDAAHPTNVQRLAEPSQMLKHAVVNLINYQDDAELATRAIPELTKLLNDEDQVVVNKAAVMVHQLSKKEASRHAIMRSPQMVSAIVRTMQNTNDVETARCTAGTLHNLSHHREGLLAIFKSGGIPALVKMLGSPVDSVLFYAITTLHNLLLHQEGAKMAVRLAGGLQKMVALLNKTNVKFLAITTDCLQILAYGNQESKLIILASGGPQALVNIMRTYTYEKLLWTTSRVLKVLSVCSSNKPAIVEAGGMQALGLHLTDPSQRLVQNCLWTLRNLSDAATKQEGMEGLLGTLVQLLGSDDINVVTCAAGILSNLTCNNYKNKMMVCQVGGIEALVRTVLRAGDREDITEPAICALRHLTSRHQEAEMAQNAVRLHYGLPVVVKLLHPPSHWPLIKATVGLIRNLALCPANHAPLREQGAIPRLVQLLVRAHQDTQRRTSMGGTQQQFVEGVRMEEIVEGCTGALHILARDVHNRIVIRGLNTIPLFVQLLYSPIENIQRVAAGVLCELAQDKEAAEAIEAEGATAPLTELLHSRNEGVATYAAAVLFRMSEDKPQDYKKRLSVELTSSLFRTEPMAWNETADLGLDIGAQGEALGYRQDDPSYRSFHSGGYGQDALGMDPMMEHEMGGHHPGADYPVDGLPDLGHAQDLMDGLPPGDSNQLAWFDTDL

For experiment [3], the target named is Flag-tagged HINT2 (histidine triad nucleotide-binding protein 2) (mouse) (UniProt Q9D0S9). Described as above.
Experiment [4] deals with T2, VE-Cadherin (mouse (endogenous in left ventricle and CMECs)) (UniProt P55284).
T2 sequence: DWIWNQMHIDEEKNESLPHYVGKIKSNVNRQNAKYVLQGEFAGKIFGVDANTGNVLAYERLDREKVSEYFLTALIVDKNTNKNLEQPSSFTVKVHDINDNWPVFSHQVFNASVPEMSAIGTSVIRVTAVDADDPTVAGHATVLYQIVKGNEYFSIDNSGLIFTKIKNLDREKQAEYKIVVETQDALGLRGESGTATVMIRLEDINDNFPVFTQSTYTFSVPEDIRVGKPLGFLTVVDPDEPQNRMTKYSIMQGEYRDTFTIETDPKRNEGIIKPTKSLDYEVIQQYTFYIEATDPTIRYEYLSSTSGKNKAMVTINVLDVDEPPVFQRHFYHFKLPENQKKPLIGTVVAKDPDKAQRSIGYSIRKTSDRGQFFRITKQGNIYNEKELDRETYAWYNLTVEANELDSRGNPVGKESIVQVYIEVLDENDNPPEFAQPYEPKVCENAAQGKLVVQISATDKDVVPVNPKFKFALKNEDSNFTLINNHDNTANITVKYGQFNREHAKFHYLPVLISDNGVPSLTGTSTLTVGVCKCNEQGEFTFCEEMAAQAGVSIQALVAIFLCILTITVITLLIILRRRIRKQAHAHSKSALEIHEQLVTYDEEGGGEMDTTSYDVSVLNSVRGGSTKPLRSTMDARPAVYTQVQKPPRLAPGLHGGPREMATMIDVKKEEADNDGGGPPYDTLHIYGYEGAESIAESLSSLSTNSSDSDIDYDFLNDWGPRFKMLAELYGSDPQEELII
The experiment in a line: co-IP; mouse left ventricle; protein A/G-magnetic beads conjugated with anti-VE-Cadherin antibody, 30 min at RT; blot for β-Catenin; sham or I/R injury, AAV9-NC or AAV9-HINT2, Ru360 or spermine.

In experiment [5] the target is T2, VE-Cadherin (mouse (endogenous in left ventricle and CMECs)). Put plainly: co-IP; CMEC lysate; protein A/G-magnetic beads conjugated with anti-VE-Cadherin antibody, 30 min at RT; blot for β-Catenin; OGD/R injury, ADV-NC or ADV-HINT2, Ru360 or spermine.

These are yes or no findings as the source states them, for the method shown. For some assays here: In cells and extracts the contact can be indirect. Some results given as binding are weak or reduced against the parent protein; the word gives no strength. For some assays here: Tags and fused reporters may be left off the sequences shown.

This is an account of results in article PMC8677646.

Consider DRP1 (from UniProt Q8K1M6 1-736), for which the binding result in experiment [1] is reported as “binds”.
With “Mitochondrial calcium uniporter (MCU) (from UniProt Q3UMR5 50-350)”, the figures for the binding result in experiment [2] and in experiment [3] were “no binding” and “binds”, respectively.
Consider β-Catenin (from UniProt Q02248 1-781), for which the binding result in experiment [4] and in experiment [5] was “binds” each time.
